From PMC5996148 come the findings set out here.

Some test systems named below: SLC7A1 (human); SLC9A3R1 (human); SMAD1 (human); SMARCB1 (human); SMCP (human); SMOX (human); SMPD3 (human); SMR3B (human); SMUG1 (human); SNAP23 (human).
What all share (assay): protein microarray (ProtoArray v5.0), streptavidin-Alexa Fluor 647
Common to all, as to details: 3'-biotin; 20 mM Tris (pH 7.5), 5 mM MgCl2, 100 mM KCl, 0.1% Tween-20, A/T-rich and random oligonucleotide blockers; temperature not stated; high values mean tight binding

The other results are listed elsewhere or left out.

Consider “GGGAGGCTGAGGCAGG [G4-1 biotinylated (PQS2)]”, for which the binding signal is -0.361 z-score with SLC7A1 (human); -0.296 z-score in the assay with SLC9A3R1 (human); -0.352 z-score in the assay with SMAD1 (human); -0.253 z-score in the assay with SMARCB1 (human); -0.348 z-score with SMCP (human); -0.274 z-score with SMOX (human). Also, the binding signal in the assay with SMPD3 (human) is -0.339 z-score; in the assay with SMR3B (human), -0.319 z-score; in the assay with SMUG1 (human), -0.327 z-score; in the assay with SNAP23 (human), -0.334 z-score.
